These are yes or no findings as the source states them, for the method shown. For part of these data: Binding seen in cells or lysates may run through a third protein. Some results given as binding are weak or reduced against the parent protein; the word gives no strength. For part of these data: Where a sequence is shown, tags or fusion partners need not be part of it.
How the values were obtained:
[1] = target: T1, AtIPK2β in pGBKT7 (yeast two-hybrid bait) (Arabidopsis thaliana) (UniProt Q9FLT2); assay: two-hybrid; BD Matchmaker system (Clontech), pGBKT7 and pGADT7, yeast strain AH109; growth on QDO (SD/-Leu/-Trp/-His/-Ade), 30 °C, 3-5 days; filter β-galactosidase assay
T1 sequence: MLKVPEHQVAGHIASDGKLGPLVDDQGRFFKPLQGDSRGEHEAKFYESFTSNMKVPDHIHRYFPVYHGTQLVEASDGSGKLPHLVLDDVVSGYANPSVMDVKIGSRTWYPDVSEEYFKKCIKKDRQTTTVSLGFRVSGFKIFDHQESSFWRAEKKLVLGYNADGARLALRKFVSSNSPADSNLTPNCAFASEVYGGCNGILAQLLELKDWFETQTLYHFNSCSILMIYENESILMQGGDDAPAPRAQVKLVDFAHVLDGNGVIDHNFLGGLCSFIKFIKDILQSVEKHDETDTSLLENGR

[2] = target: T2, YC-FVE (Arabidopsis thaliana) (UniProt O22607); assay: split reporter; BiFC with YN and YC halves of YFP in Arabidopsis protoplasts; confocal microscopy within 18 hours after transformation
T2 sequence: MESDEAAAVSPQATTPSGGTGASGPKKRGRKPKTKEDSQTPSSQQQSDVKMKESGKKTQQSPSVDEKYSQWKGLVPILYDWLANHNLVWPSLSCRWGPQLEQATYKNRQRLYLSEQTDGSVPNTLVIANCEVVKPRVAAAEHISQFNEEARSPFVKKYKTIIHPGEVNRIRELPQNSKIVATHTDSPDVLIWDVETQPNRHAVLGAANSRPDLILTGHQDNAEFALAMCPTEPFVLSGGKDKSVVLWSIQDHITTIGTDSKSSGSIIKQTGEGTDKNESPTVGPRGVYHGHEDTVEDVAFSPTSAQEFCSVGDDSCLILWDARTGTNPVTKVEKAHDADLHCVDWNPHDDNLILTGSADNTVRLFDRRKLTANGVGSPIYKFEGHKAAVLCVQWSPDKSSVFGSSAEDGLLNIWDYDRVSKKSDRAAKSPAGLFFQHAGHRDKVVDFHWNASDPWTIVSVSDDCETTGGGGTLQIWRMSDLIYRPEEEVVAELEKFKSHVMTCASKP

[3] = target: T3, FVE-GFP (Arabidopsis thaliana) (UniProt O22607); assay: co-IP; total proteins of leaves of transgenic Arabidopsis co-expressing AtIPK2β-MYC and FVE-GFP; anti-GFP antibody overnight at 4 °C, Protein A magnetic beads; blot with anti-MYC
T3 sequence: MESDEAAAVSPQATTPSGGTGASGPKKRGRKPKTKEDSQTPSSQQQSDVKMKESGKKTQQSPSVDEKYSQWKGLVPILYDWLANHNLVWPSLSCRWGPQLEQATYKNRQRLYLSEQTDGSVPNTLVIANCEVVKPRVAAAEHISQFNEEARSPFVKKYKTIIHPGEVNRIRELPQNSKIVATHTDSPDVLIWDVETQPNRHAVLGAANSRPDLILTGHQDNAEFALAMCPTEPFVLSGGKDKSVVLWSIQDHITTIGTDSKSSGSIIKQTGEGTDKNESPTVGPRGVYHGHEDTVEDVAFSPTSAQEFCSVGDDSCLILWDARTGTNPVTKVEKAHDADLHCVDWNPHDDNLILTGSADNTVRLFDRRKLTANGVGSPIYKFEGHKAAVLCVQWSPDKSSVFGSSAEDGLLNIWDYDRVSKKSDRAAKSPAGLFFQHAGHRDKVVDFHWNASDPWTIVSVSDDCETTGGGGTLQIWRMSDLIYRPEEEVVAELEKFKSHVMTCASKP

B1: FVE full-length in pGADT7 (yeast two-hybrid prey) (protein, UniProt O22607 1-507)
chain: MESDEAAAVSPQATTPSGGTGASGPKKRGRKPKTKEDSQTPSSQQQSDVKMKESGKKTQQSPSVDEKYSQWKGLVPILYDWLANHNLVWPSLSCRWGPQLEQATYKNRQRLYLSEQTDGSVPNTLVIANCEVVKPRVAAAEHISQFNEEARSPFVKKYKTIIHPGEVNRIRELPQNSKIVATHTDSPDVLIWDVETQPNRHAVLGAANSRPDLILTGHQDNAEFALAMCPTEPFVLSGGKDKSVVLWSIQDHITTIGTDSKSSGSIIKQTGEGTDKNESPTVGPRGVYHGHEDTVEDVAFSPTSAQEFCSVGDDSCLILWDARTGTNPVTKVEKAHDADLHCVDWNPHDDNLILTGSADNTVRLFDRRKLTANGVGSPIYKFEGHKAAVLCVQWSPDKSSVFGSSAEDGLLNIWDYDRVSKKSDRAAKSPAGLFFQHAGHRDKVVDFHWNASDPWTIVSVSDDCETTGGGGTLQIWRMSDLIYRPEEEVVAELEKFKSHVMTCASKP
With B1 the binding [1] was “binds”.

B2: YN-AtIPK2β (protein, UniProt Q9FLT2 1-300)
chain: MLKVPEHQVAGHIASDGKLGPLVDDQGRFFKPLQGDSRGEHEAKFYESFTSNMKVPDHIHRYFPVYHGTQLVEASDGSGKLPHLVLDDVVSGYANPSVMDVKIGSRTWYPDVSEEYFKKCIKKDRQTTTVSLGFRVSGFKIFDHQESSFWRAEKKLVLGYNADGARLALRKFVSSNSPADSNLTPNCAFASEVYGGCNGILAQLLELKDWFETQTLYHFNSCSILMIYENESILMQGGDDAPAPRAQVKLVDFAHVLDGNGVIDHNFLGGLCSFIKFIKDILQSVEKHDETDTSLLENGR
With B2 the binding [2] was “binds”.

B3: AtIPK2β-MYC (protein, UniProt Q9FLT2 1-300)
chain: MLKVPEHQVAGHIASDGKLGPLVDDQGRFFKPLQGDSRGEHEAKFYESFTSNMKVPDHIHRYFPVYHGTQLVEASDGSGKLPHLVLDDVVSGYANPSVMDVKIGSRTWYPDVSEEYFKKCIKKDRQTTTVSLGFRVSGFKIFDHQESSFWRAEKKLVLGYNADGARLALRKFVSSNSPADSNLTPNCAFASEVYGGCNGILAQLLELKDWFETQTLYHFNSCSILMIYENESILMQGGDDAPAPRAQVKLVDFAHVLDGNGVIDHNFLGGLCSFIKFIKDILQSVEKHDETDTSLLENGR
With B3 the binding [3] was “binds”.
